Assay results from publication PMC6396947.
Results are given in words; binding and its absence hold for the method and conditions named. In cells and extracts the contact can be indirect. Some entries that bind do so weakly or less than the wild type. Tags and fused reporters may be left off the sequences shown.

Amino acid sequences for entries named in this document (tags omitted).
UniProt Q16531: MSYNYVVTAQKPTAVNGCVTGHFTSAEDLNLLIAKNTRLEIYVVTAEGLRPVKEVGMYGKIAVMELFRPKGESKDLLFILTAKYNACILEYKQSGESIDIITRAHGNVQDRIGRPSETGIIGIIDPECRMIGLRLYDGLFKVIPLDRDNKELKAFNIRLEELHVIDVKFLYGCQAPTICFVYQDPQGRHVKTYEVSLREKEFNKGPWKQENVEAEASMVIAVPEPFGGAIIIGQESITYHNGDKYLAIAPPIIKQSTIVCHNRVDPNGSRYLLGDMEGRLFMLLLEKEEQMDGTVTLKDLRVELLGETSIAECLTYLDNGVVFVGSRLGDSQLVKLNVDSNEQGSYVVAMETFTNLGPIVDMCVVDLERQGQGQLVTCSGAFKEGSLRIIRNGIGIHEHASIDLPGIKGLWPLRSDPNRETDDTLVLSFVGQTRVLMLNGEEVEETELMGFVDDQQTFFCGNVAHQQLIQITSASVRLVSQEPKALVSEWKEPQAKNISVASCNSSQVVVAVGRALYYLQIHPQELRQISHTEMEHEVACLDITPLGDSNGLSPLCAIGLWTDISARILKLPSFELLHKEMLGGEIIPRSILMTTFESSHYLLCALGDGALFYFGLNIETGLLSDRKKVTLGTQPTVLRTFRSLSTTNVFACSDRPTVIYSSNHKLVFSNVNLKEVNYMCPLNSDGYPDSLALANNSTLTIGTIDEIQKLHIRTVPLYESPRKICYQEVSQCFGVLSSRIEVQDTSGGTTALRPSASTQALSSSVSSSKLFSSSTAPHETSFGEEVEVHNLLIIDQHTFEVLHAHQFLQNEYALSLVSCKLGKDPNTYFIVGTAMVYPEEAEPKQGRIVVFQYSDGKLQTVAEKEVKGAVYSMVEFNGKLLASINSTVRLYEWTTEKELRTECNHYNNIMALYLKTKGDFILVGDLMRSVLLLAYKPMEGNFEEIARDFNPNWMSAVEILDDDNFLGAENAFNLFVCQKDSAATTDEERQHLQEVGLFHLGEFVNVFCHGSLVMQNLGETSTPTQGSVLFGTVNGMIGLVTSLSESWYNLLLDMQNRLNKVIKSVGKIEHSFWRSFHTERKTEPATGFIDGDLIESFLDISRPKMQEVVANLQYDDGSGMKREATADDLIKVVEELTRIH

Assays:
[1] = biological target: T1, Flag-MMS22L (human) (UniProt Q6ZRQ5); test: co-IP; Flag-tagged and GFP-tagged proteins co-expressed in 293T cells; lysis buffer 50 mM Tris-HCl, 150 mM NaCl, 1% NP-40, 5 mM EDTA, 10% glycerin; 250 ug total protein with anti-Flag agarose 1.5 h at 4 C, five washes; immunoblots against Flag and GFP
T1 sequence: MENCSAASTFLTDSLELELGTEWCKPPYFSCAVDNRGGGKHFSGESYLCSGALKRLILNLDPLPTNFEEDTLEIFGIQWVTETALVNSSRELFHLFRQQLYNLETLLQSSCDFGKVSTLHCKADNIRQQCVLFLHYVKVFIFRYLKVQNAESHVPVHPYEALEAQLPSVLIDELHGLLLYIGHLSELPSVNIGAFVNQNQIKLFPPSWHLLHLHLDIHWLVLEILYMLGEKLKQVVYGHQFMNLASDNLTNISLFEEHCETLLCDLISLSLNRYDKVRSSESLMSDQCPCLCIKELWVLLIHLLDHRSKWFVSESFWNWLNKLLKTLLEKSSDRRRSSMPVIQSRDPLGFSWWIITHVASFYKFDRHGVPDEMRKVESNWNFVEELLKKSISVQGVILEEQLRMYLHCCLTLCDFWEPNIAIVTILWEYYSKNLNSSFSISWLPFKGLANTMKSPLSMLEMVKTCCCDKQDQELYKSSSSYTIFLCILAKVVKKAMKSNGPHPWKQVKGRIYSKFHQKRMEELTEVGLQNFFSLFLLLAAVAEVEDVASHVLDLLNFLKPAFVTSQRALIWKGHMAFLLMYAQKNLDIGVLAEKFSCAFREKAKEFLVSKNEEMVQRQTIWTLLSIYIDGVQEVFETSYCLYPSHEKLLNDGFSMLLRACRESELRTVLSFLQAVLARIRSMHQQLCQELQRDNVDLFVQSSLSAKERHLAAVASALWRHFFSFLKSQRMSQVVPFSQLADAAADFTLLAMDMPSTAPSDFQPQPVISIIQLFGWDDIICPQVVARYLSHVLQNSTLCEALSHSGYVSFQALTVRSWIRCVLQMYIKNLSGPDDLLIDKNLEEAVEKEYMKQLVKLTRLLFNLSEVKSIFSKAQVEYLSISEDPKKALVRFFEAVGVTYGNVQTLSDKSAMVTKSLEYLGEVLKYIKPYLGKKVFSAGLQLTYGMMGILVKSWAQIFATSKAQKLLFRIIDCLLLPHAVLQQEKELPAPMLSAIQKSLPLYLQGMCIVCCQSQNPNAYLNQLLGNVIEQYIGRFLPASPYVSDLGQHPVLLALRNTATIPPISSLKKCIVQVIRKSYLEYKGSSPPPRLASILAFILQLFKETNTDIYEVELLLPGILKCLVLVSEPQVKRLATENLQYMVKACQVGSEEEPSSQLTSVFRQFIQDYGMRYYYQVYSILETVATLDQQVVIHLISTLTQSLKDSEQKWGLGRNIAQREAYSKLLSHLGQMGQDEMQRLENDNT

[2] = biological target: T2, GST-ESCO2-LG (L415DG417D) (human) (UniProt Q56NI9); test: pull-down; GST-ESCO2 or its mutants bound to glutathione sepharose, incubated with FLAG-MMS22L or His6-PCNA; co-purified fractions detected by western blotting; as described in ref. 20
T2 sequence: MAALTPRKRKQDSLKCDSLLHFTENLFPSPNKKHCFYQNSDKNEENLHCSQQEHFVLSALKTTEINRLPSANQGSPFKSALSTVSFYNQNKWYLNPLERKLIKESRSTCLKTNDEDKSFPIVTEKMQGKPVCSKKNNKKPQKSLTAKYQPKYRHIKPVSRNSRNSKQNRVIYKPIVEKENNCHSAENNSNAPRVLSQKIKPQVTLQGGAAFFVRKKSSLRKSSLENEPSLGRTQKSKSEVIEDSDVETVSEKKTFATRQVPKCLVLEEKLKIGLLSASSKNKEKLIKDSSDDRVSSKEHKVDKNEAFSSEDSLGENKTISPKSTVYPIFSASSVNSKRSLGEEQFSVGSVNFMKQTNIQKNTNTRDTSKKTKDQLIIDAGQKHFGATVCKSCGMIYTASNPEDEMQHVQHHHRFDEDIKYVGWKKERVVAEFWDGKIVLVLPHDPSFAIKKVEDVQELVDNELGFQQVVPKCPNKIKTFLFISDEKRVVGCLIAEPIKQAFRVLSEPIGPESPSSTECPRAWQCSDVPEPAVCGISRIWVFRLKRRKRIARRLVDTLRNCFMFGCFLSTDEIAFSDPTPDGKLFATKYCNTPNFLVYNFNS

In the case of GFP-DDB1 (from UniProt Q16531 1-1140), the binding [1] is reported as “binds”.

B1: FLAG-MMS22L (of the GST pull-down) (protein, UniProt Q6ZRQ5 1-1243)
chain: T1 sequence
For B1, the binding [2] was “binds weakly”.
